These results are taken from patent US5856440 (dated 1999).

This series is described as follows: general procedure: Boc solid-phase peptide synthesis; Methylbenzhydrylamine (MBHA) resin, 0.40 mmol/g; DCC. To be noted: whole synthesis, analytical HPLC (Hamilton PRP-1 reverse phase column), scale of the general procedure 1.00 g resin (0.40 mmol/g).

Turning to Leu-Ala-Gly-Val, the “crude HPLC purity” value was “about 98%”.
